{"source": "patent US20120077786A1", "about": "“METHODS AND COMPOSITIONS FOR DISEASE TREATMENT USING INHALATION” (priority 2010, published 2012)", "assay": "Aerosol performance of dry powder inhaler formulation, next generation Impactor", "assay_type": "physicochemical", "conditions": "inhaler operated at 15 L/min", "experimental": "Inhaled corticosteroids (ICS) mometasone furoate or fluticasone furoate are prepared with volume median particle size of less than 5 microns. Calcitriol (1, 25-Dihydroxycholecalciferol) is also prepared in crystalline form and subsequently micronized to a volume median particle size of less than 5 microns. The ICS's are incorporated at appropriately 30-50% of the commercial ICS dose when administered via a passive dry powder inhaler, due to the efficiency of the invention delivered by a dry powder inhaler (DPI) available from MicroDose Therapeutx, Inc. One preferred embodiment utilizes an ICS dosed once daily, i.e. mometasone furoate or fluticasone furoate, to coincide with a once daily dose of the vitamin D receptor agonist. This combination product is designed to reverse corticoidsteroid resistance (CR) by adding the protective anti-inflammatory effects of calcitriol with the local anti-inflamatory effects of these ICS's. The inhaler is operated at 15 L/min and for both medicaments, the aerosol performance with a fine particle fraction (% of particles exiting the inhaler that are less than 5.8 microns) is […] with at least 10% of particles in the less than 2.1 micron size range when tested with a next generation Impactor.\nCalcitriol is a synthetic vitamin D analog and has been used as a pharmaceutical as well as a nutraceutical. […]", "note": "Some entries share one result that the patent states for a list of compounds."}
{"smiles": "CC1=C(/C=C/C(C)=C/C=C/C(C)=C/C(=O)O)C(C)(C)CCC1", "note": "[ATRA, All Trans Retinoic Acid]", "values": [{"measurement": "fine particle fraction (% of particles exiting the inhaler that are less than 5.8 microns)", "value": "less than or equal to 45%"}, {"measurement": "particles in the less than 2.1 micron size range", "value": "at least 10%"}]}
